# Some of the results follow.
# What was measured:
# Assay in all cases: glycan array binding signal (z-score within array); higher = stronger binding
# Settings in all cases: glycan notation: IUPAC condensed, linker removed
# [1] = system: Fuc(a1-2)Gal(b1-3)GalNAc(a1-3)[Fuc(a1-2)]Gal(b1-4)GlcNAc
# Method in brief: (§1)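 Negative Z-scores can be read as non-binding. The Z-score is calculated within each array and then averaged across arrays of one protein sequence at different concentrations or buffers and across linkers. Arrays, 3228 in all, were curated from the Consortium for Functional Glycomics database and kept only where the protein sequence was available.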
# [2] = system: Fuc(a1-2)Gal(b1-3)GalNAc(a1-3)[Fuc(a1-2)]Gal(b1-4)Glc
# Method in brief: as §1
# [3] = system: Fuc(a1-2)Gal(b1-3)GalNAc(b1-3)Gal(a1-4)Gal(b1-4)Glc
# Method in brief: as §1
# [4] = system: Fuc(a1-2)Gal(b1-3)GalNAc(b1-3)Gal
# Method in brief: as §1
# [5] = system: Fuc(a1-2)Gal(b1-3)GalNAc(b1-4)[Neu5Ac(a2-3)]Gal(b1-4)Glc
# Method in brief: as §1
# Fuc(a1-2)Gal(b1-3)GalNAc = system: Fuc(a1-2)Gal(b1-3)GalNAc
# Method in brief: as §1
# [6] = system: Fuc(a1-2)Gal(b1-3)GlcNAc(b1-2)Man(a1-3)[Fuc(a1-2)Gal(b1-3)GlcNAc(b1-2)Man(a1-6)]Man(b1-4)GlcNAc(b1-4)GlcNAc
# Method in brief: as §1
# [7] = system: Fuc(a1-2)Gal(b1-3)GlcNAc(b1-2)Man(a1-3)[Fuc(a1-2)Gal(b1-3)GlcNAc(b1-2)Man(a1-6)]Man(b1-4)GlcNAc(b1-4)[Fuc(a1-6)]GlcNAc
# Method in brief: as §1
# [8] = system: Fuc(a1-2)Gal(b1-3)GlcNAc(b1-3)Gal(b1-4)Glc
# Method in brief: as §1
# [9] = system: Fuc(a1-2)Gal(b1-3)GlcNAc(b1-3)GalNAc
# Method in brief: as §1
# [10] = system: Fuc(a1-2)Gal(b1-3)GlcNAc(b1-3)[Fuc(a1-2)Gal(b1-3)GlcNAc(b1-6)]GalNAc
# Method in brief: as §1
# [11] = system: Fuc(a1-2)Gal(b1-3)GlcNAc(b1-3)[Fuc(a1-3)[Gal(b1-4)]GlcNAc(b1-6)]Gal(b1-4)Glc
# Method in brief: as §1
# [12] = system: Fuc(a1-2)Gal(b1-3)GlcNAc(b1-3)[Gal(b1-4)GlcNAc(b1-6)]Gal(b1-4)Glc
# Method in brief: as §1
# [13] = system: Fuc(a1-2)Gal(b1-3)GlcNAc(b1-3)[Neu5Ac(a2-6)Gal(b1-4)GlcNAc(b1-6)]Gal(b1-4)Glc
# Method in brief: as §1
# [14] = system: Fuc(a1-2)Gal(b1-3)GlcNAc6S
# Method in brief: as §1
# Fuc(a1-2)Gal(b1-3)GlcNAc = system: Fuc(a1-2)Gal(b1-3)GlcNAc
# Method in brief: as §1
# [15] = system: Fuc(a1-2)Gal(b1-3)[Fuc(a1-4)]GlcNAc(b1-2)Man(a1-3)[Fuc(a1-2)Gal(b1-3)[Fuc(a1-4)]GlcNAc(b1-2)Man(a1-6)]Man(b1-4)GlcNAc(b1-4)GlcNAc
# Method in brief: as §1
# [16] = system: Fuc(a1-2)Gal(b1-3)[Fuc(a1-4)]GlcNAc(b1-2)Man(a1-6)[Fuc(a1-2)Gal(b1-3)[Fuc(a1-4)]GlcNAc(b1-2)Man(a1-3)]Man(b1-4)GlcNAc(b1-4)[Fuc(a1-6)]GlcNAc
# Method in brief: as §1
# [17] = system: Fuc(a1-2)Gal(b1-3)[Fuc(a1-4)]GlcNAc(b1-3)[Fuc(a1-3)[Gal(b1-4)]GlcNAc(b1-6)]Gal(b1-4)Glc
# Method in brief: as §1
# [18] = system: Fuc(a1-2)Gal(b1-3)[Fuc(a1-4)]GlcNAc(b1-3)[Gal(b1-4)GlcNAc(b1-6)]Gal(b1-4)Glc
# Method in brief: as §1
# [19] = system: Fuc(a1-2)Gal(b1-3)[Fuc(a1-4)]GlcNAc
# Method in brief: as §1
# Fuc(a1-2)Gal(b1-4)Glc6S = system: Fuc(a1-2)Gal(b1-4)Glc6S
# Method in brief: as §1
# [20] = system: Fuc(a1-2)Gal(b1-4)GlcNAc(b1-2)Man(a1-3)[Fuc(a1-2)Gal(b1-4)GlcNAc(b1-2)Man(a1-6)]Man(b1-4)GlcNAc(b1-4)GlcNAc
# Method in brief: as §1
# [21] = system: Fuc(a1-2)Gal(b1-4)GlcNAc(b1-2)Man(a1-3)[Fuc(a1-2)Gal(b1-4)GlcNAc(b1-2)Man(a1-6)]Man(b1-4)GlcNAc(b1-4)[Fuc(a1-6)]GlcNAc
# Method in brief: as §1
# [22] = system: Fuc(a1-2)Gal(b1-4)GlcNAc(b1-2)Man
# Method in brief: as §1
# [23] = system: Fuc(a1-2)Gal(b1-4)GlcNAc(b1-2)[Fuc(a1-2)Gal(b1-4)GlcNAc(b1-4)]Man(a1-3)[Fuc(a1-2)Gal(b1-4)GlcNAc(b1-2)Man(a1-6)]Man(b1-4)GlcNAc(b1-4)GlcNAc
# Method in brief: as §1
# [24] = system: Fuc(a1-2)Gal(b1-4)GlcNAc(b1-3)Gal(b1-4)GlcNAc(b1-3)Gal(b1-4)GlcNAc
# Method in brief: as §1
# [25] = system: Fuc(a1-2)Gal(b1-4)GlcNAc(b1-3)Gal(b1-4)GlcNAc
# Method in brief: as §1
# [26] = system: Fuc(a1-2)Gal(b1-4)GlcNAc(b1-3)GalNAc
# Method in brief: as §1
# [27] = system: Fuc(a1-2)Gal(b1-4)GlcNAc(b1-3)[Fuc(a1-2)Gal(b1-4)GlcNAc(b1-6)]GalNAc
# Method in brief: as §1
# [28] = system: Fuc(a1-2)Gal(b1-4)GlcNAc(b1-6)GalNAc
# Method in brief: as §1
# [29] = system: Fuc(a1-2)Gal(b1-4)GlcNAc6S
# Method in brief: as §1
# Fuc(a1-2)Gal(b1-4)GlcNAc = system: Fuc(a1-2)Gal(b1-4)GlcNAc
# Method in brief: as §1
# Fuc(a1-2)Gal(b1-4)Glc = system: Fuc(a1-2)Gal(b1-4)Glc
# Method in brief: as §1
# [30] = system: Fuc(a1-2)Gal(b1-4)[Fuc(a1-3)]GlcNAc(b1-2)Man(a1-3)[Fuc(a1-2)Gal(b1-4)[Fuc(a1-3)]GlcNAc(b1-2)Man(a1-6)]Man(b1-4)GlcNAc(b1-4)GlcNAc
# Method in brief: as §1
# [31] = system: Fuc(a1-2)Gal(b1-4)[Fuc(a1-3)]GlcNAc(b1-2)Man(a1-6)[Fuc(a1-2)Gal(b1-4)[Fuc(a1-3)]GlcNAc(b1-2)Man(a1-3)]Man(b1-4)GlcNAc(b1-4)[Fuc(a1-6)]GlcNAc
# Method in brief: as §1
# [32] = system: Fuc(a1-2)Gal(b1-4)[Fuc(a1-3)]GlcNAc(b1-2)[Fuc(a1-2)Gal(b1-4)[Fuc(a1-3)]GlcNAc(b1-4)]Man(a1-3)[Fuc(a1-2)Gal(b1-4)[Fuc(a1-3)]GlcNAc(b1-2)Man(a1-6)]Man(b1-4)GlcNAc(b1-4)GlcNAc
# Method in brief: as §1
# [33] = system: Fuc(a1-2)Gal(b1-4)[Fuc(a1-3)]GlcNAc(b1-3)Gal(b1-4)[Fuc(a1-3)]GlcNAc(b1-3)Gal(b1-4)[Fuc(a1-3)]GlcNAc
# Method in brief: as §1
# [34] = system: Fuc(a1-2)Gal(b1-4)[Fuc(a1-3)]GlcNAc(b1-3)Gal(b1-4)[Fuc(a1-3)]GlcNAc
# Method in brief: as §1
# [35] = system: Fuc(a1-2)Gal(b1-4)[Fuc(a1-3)]GlcNAc(b1-3)GalNAc
# Method in brief: as §1
# [36] = system: Fuc(a1-2)Gal(b1-4)[Fuc(a1-3)]GlcNAc(b1-3)[Neu5Ac(a2-6)Gal(b1-4)GlcNAc(b1-6)]Gal(b1-4)Glc
# Method in brief: as §1
# [37] = system: Fuc(a1-2)Gal(b1-4)[Fuc(a1-3)]GlcNAc
# Method in brief: as §1
# [38] = system: Fuc(a1-2)Gal6S(b1-3)GlcNAc6S
# Method in brief: as §1
# [39] = system: Fuc(a1-2)Gal6S(b1-3)GlcNAc
# Method in brief: as §1
# [40] = system: Fuc(a1-2)Gal6S(b1-4)Glc6S
# Method in brief: as §1
# [41] = system: Fuc(a1-2)Gal6S(b1-4)GlcNAc
# Method in brief: as §1
# Fuc(a1-2)Gal6S(b1-4)Glc = system: Fuc(a1-2)Gal6S(b1-4)Glc
# Method in brief: as §1
# Fuc(a1-2)Gal = system: Fuc(a1-2)Gal
# Method in brief: as §1
# [42] = system: Fuc(a1-2)[Gal(a1-3)]Gal(b1-3)GalNAc
# Method in brief: as §1
# [43] = system: Fuc(a1-2)[Gal(a1-3)]Gal(b1-3)GlcNAc(b1-2)Man(a1-3)[Fuc(a1-2)[Gal(a1-3)]Gal(b1-3)GlcNAc(b1-2)Man(a1-6)]Man(b1-4)GlcNAc(b1-4)GlcNAc
# Method in brief: as §1
# [44] = system: Fuc(a1-2)[Gal(a1-3)]Gal(b1-3)GlcNAc(b1-2)Man(a1-3)[Fuc(a1-2)[Gal(a1-3)]Gal(b1-3)GlcNAc(b1-2)Man(a1-6)]Man(b1-4)GlcNAc(b1-4)[Fuc(a1-6)]GlcNAc
# Method in brief: as §1
substance,measurement,setting,value
"Wza (Escherichia coli), P0A930",glycan array binding signal (z-score),[1],-0.564
same,glycan array binding signal (z-score),[2],-0.261
same,glycan array binding signal (z-score),[3],-1.05
same,glycan array binding signal (z-score),[4],-0.039
same,glycan array binding signal (z-score),[5],0.486
same,glycan array binding signal (z-score),Fuc(a1-2)Gal(b1-3)GalNAc,0.144
same,glycan array binding signal (z-score),[6],1.43
same,glycan array binding signal (z-score),[7],-1.24
same,glycan array binding signal (z-score),[8],0.374
same,glycan array binding signal (z-score),[9],0.137
same,glycan array binding signal (z-score),[10],0.543
same,glycan array binding signal (z-score),[11],-0.65
same,glycan array binding signal (z-score),[12],0.121
same,glycan array binding signal (z-score),[13],-0.521
same,glycan array binding signal (z-score),[14],-0.281
same,glycan array binding signal (z-score),Fuc(a1-2)Gal(b1-3)GlcNAc,0.769
same,glycan array binding signal (z-score),[15],1.49
same,glycan array binding signal (z-score),[16],1.21
same,glycan array binding signal (z-score),[17],-0.515
same,glycan array binding signal (z-score),[18],0.314
same,glycan array binding signal (z-score),[19],-1.04
same,glycan array binding signal (z-score),Fuc(a1-2)Gal(b1-4)Glc6S,-0.326
same,glycan array binding signal (z-score),[20],0.059
same,glycan array binding signal (z-score),[21],-0.368
same,glycan array binding signal (z-score),[22],0.94
same,glycan array binding signal (z-score),[23],0.441
same,glycan array binding signal (z-score),[24],-2.01
same,glycan array binding signal (z-score),[25],-0.32
same,glycan array binding signal (z-score),[26],-0.551
same,glycan array binding signal (z-score),[27],0.214
same,glycan array binding signal (z-score),[28],0.01
same,glycan array binding signal (z-score),[29],1.03
same,glycan array binding signal (z-score),Fuc(a1-2)Gal(b1-4)GlcNAc,-0.146
same,glycan array binding signal (z-score),Fuc(a1-2)Gal(b1-4)Glc,1.06
same,glycan array binding signal (z-score),[30],0.425
same,glycan array binding signal (z-score),[31],0.281
same,glycan array binding signal (z-score),[32],1.08
same,glycan array binding signal (z-score),[33],-0.725
same,glycan array binding signal (z-score),[34],-0.207
same,glycan array binding signal (z-score),[35],0.959
same,glycan array binding signal (z-score),[36],1.82
same,glycan array binding signal (z-score),[37],-0.629
same,glycan array binding signal (z-score),[38],0.429
same,glycan array binding signal (z-score),[39],1.29
same,glycan array binding signal (z-score),[40],1.05
same,glycan array binding signal (z-score),[41],0.807
same,glycan array binding signal (z-score),Fuc(a1-2)Gal6S(b1-4)Glc,0.28
same,glycan array binding signal (z-score),Fuc(a1-2)Gal,-0.106
same,glycan array binding signal (z-score),[42],0.911
same,glycan array binding signal (z-score),[43],-0.383
same,glycan array binding signal (z-score),[44],0.523

# In another format: results already given
substance | measurement | setting | value
Wza (Escherichia coli), P0A930 | glycan array binding signal (z-score) | [2] | -0.261
same | glycan array binding signal (z-score) | [6] | 1.43
same | glycan array binding signal (z-score) | [9] | 0.137
same | glycan array binding signal (z-score) | [11] | -0.65
same | glycan array binding signal (z-score) | [16] | 1.21
same | glycan array binding signal (z-score) | [17] | -0.515
same | glycan array binding signal (z-score) | [29] | 1.03
same | glycan array binding signal (z-score) | Fuc(a1-2)Gal(b1-4)GlcNAc | -0.146
same | glycan array binding signal (z-score) | [30] | 0.425
same | glycan array binding signal (z-score) | [34] | -0.207
same | glycan array binding signal (z-score) | [36] | 1.82
same | glycan array binding signal (z-score) | [37] | -0.629
same | glycan array binding signal (z-score) | [38] | 0.429
same | glycan array binding signal (z-score) | [42] | 0.911
same | glycan array binding signal (z-score) | [43] | -0.383
